Data source: PubChem BioAssay AID504764 (Drosophila RNAi Screening Center, 2011)
The screen tested about 22,000 reagents; below is a random part of those with a known target gene and a result. Over the whole deposit, 403 (1.9%) are marked active. 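Unnormalised raw counts per well; ratio z-scores behind the hit calls and whether each hit raises or lowers signal are not deposited.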 Reagents against one gene are numbered here. Names joined by + are all predicted targets of the reagent. Reagent sequences are not shown. The record does not give: the amount of reagent.

Aim: 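Knock-downs that raise or lower a Notch target reporter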 (primary screen)
Cell system: Drosophila Kc167 cells
Knock-down reagent: long dsRNA against Drosophila genes
Timing: about 5 days (4 days dsRNA, then 24 h after transfection)
Challenge: transfection of constitutively active membrane-tethered Notch lacking the extracellular domain, read 24 h later
Detection: 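Light from a Notch-responsive E(spl)m3 luciferase reporter under active Notch, with control-promoter and no-Notch reporter wells to normalise; raw counts from paired wells a and b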
Scale: induced reporter light, run 1, well a and induced reporter light, run 1, well b: higher = more light from the Notch target reporter with active Notch; control promoter light, run 1, well a and control promoter light, run 1, well b: higher = more light from the viral control promoter (cell number, transfection, viability); uninduced reporter light, run 1, well a: higher = more light from the Notch target reporter without active Notch
Active means: 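Hit if the duplicate-averaged log2 ratio of induced to control-promoter light gives a plate-wise z beyond ±2, or induced to uninduced beyond ±1.8; weak-control or discordant-duplicate wells dropped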
Meaning of the calls: active = modifier hit (raised or lowered Notch signal); inactive = not a hit

| gene | reagent | induced reporter light, run 1, well a | induced reporter light, run 1, well b | control promoter light, run 1, well a | control promoter light, run 1, well b | uninduced reporter light, run 1, well a | Outcome |
| --- | --- | --- | --- | --- | --- | --- | --- |
| CG33258 | 1 | 1.64e5 | 1.88e5 | 2.23e5 | 2.50e5 | 16282 | inactive |
| Obp73a | 1 | 1.18e5 | 1.02e5 | 96625 | 1.03e5 | 4392 | inactive |
| CG8323 | 1 | 1.16e5 | 1.38e5 | 1.78e5 | 1.48e5 | 11360 | inactive |
| CG12301 | 1 | 93995 | 90975 | 58020 | 73185 | 7320 | inactive |
| CG14330 | 1 | 2.24e5 | 2.30e5 | 2.19e5 | 2.25e5 | 18525 | inactive |
| Jhbp5 | 1 | 1.89e5 | 2.12e5 | 2.22e5 | 2.11e5 | 18695 | inactive |
| CG34256 | 1 | 2.28e5 | 1.94e5 | 3.46e5 | 2.80e5 | 17515 | inactive |
| CG13071 | 1 | 1.57e5 | 1.40e5 | 1.91e5 | 2.21e5 | 8945 | inactive |
| Adgf-A | 1 | 88405 | 93110 | 56020 | 77235 | 7345 | inactive |
| CG3788 | 1 | 1.99e5 | 1.98e5 | 1.95e5 | 1.73e5 | 14720 | inactive |
| CG32055 | 1 | 95760 | 1.07e5 | 76100 | 27170 | 8270 | inactive |
| CG11307 | 1 | 1.01e5 | 1.24e5 | 73120 | 88305 | 8625 | inactive |
| CG32830 (retired record) | 1 | 6542 | 5865 | 6705 | 6840 | 2742 | inactive |
| Tim8 | 1 | 66190 | 59365 | 87730 | 79195 | 4755 | inactive |
| CG34161 | 1 | 1.58e5 | 1.35e5 | 1.84e5 | 1.71e5 | 11420 | inactive |
| mthl8 | 1 | 1.05e5 | 1.05e5 | 2.18e5 | 2.83e5 | 10220 | inactive |
| mthl8 | 2 | 1.20e5 | 1.16e5 | 1.70e5 | 1.14e5 | 5660 | inactive |
| DnaJ-H | 1 | 1.56e5 | 1.90e5 | 1.42e5 | 1.58e5 | 14290 | inactive |
| Pex11c | 1 | 1.69e5 | 1.58e5 | 1.89e5 | 1.92e5 | 12805 | inactive |
| CG6763 | 1 | 1.80e5 | 1.81e5 | 2.40e5 | 2.28e5 | 14970 | inactive |
| tctn + B9d2 | 1 | 1.70e5 | 1.40e5 | 2.01e5 | 1.89e5 | 9350 | inactive |
| Pi3K21B | 1 | 1.50e5 | 1.64e5 | 1.17e5 | 1.59e5 | 14855 | inactive |
| cg | 1 | 5345 | 4265 | 6705 | 4250 | 1875 | inactive |
| AP-1sigma | 1 | 1.38e5 | 2.08e5 | 2.17e5 | 2.34e5 | 12985 | inactive |
| CG7352 | 1 | 90835 | 1.20e5 | 1.11e5 | 92155 | 8882 | inactive |
| CG4098 | 1 | 1.87e5 | 1.58e5 | 2.32e5 | 1.71e5 | 9080 | inactive |
| CG17198 + CG17197 | 1 | 1.90e5 | 2.08e5 | 2.29e5 | 1.85e5 | 14985 | inactive |
| CG17198 + CG17197 | 2 | 1.84e5 | 2.15e5 | 2.27e5 | 2.00e5 | 14430 | inactive |
| Iru | 1 | 1.23e5 | 1.20e5 | 81975 | 62555 | 10105 | inactive |

Continued; the last 4 above are carried over.
| gene | reagent | induced reporter light, run 1, well a | induced reporter light, run 1, well b | control promoter light, run 1, well a | control promoter light, run 1, well b | uninduced reporter light, run 1, well a | Outcome |
| --- | --- | --- | --- | --- | --- | --- | --- |
| CG4098 | 1 | 1.87e5 | 1.58e5 | 2.32e5 | 1.71e5 | 9080 | inactive |
| CG17198 + CG17197 | 1 | 1.90e5 | 2.08e5 | 2.29e5 | 1.85e5 | 14985 | inactive |
| CG17198 + CG17197 | 2 | 1.84e5 | 2.15e5 | 2.27e5 | 2.00e5 | 14430 | inactive |
| Iru | 1 | 1.23e5 | 1.20e5 | 81975 | 62555 | 10105 | inactive |
| Traf-like | 1 | 1.61e5 | 1.81e5 | 2.61e5 | 2.69e5 | 13680 | inactive |
| CG18417 | 1 | 1.75e5 | 2.16e5 | 1.95e5 | 1.50e5 | 8770 | inactive |
| CG32603 | 1 | 1.14e5 | 1.04e5 | 1.23e5 | 97880 | 15275 | inactive |
| CG32603 | 2 | – | – | – | – | – | inactive |
| CG10562 | 1 | 2.06e5 | 2.46e5 | 2.97e5 | 2.85e5 | 16805 | inactive |
| Acsx1R | 1 | 1.42e5 | 1.44e5 | 1.47e5 | 1.29e5 | 10425 | inactive |
| CG17568 | 1 | 25635 | 34580 | 37245 | 29075 | 1480 | inactive |
| CG3448 | 1 | 1.23e5 | 1.40e5 | 1.70e5 | 1.90e5 | 5775 | inactive |
| CG33998 | 1 | 1.29e5 | 1.16e5 | 1.82e5 | 1.27e5 | 8130 | inactive |
| Usp16-45 | 1 | 2.07e5 | 1.67e5 | 2.49e5 | 2.48e5 | 16970 | inactive |
| RpL40 | 1 | 77600 | 84450 | 92620 | 1.00e5 | 5290 | inactive |
| beat-IIIb | 1 | 1.56e5 | 1.59e5 | 1.60e5 | 1.79e5 | 13470 | inactive |
| ash2 | 1 | 1.80e5 | 1.80e5 | 1.78e5 | 1.63e5 | 16770 | inactive |
| Mst84B | 1 | 1.18e5 | 1.31e5 | 1.12e5 | 79545 | 11120 | inactive |
| Chmp1 | 1 | 1.54e5 | 1.57e5 | 76075 | 76150 | 8700 | inactive |
| CG18284 | 1 | 1.92e5 | 1.91e5 | 1.86e5 | 1.97e5 | 12015 | inactive |
| CG18284 | 2 | 2.06e5 | 1.61e5 | 3.42e5 | 2.95e5 | 15985 | inactive |
| CG31126 | 1 | 2.09e5 | 1.57e5 | 2.44e5 | 2.36e5 | 16630 | inactive |
| CG13699 | 1 | 1.05e5 | 1.04e5 | 1.83e5 | 1.54e5 | 6732 | inactive |
| fliI | 1 | 1.74e5 | 1.72e5 | 3.25e5 | 2.87e5 | 15125 | inactive |
| CG17304 (retired record) | 1 | 49650 | 56995 | 33875 | 33545 | 8315 | inactive |
